The assay has as its target T1, DOC1-related protein (human, UniProt Q4L180 241-1128).
T1 sequence: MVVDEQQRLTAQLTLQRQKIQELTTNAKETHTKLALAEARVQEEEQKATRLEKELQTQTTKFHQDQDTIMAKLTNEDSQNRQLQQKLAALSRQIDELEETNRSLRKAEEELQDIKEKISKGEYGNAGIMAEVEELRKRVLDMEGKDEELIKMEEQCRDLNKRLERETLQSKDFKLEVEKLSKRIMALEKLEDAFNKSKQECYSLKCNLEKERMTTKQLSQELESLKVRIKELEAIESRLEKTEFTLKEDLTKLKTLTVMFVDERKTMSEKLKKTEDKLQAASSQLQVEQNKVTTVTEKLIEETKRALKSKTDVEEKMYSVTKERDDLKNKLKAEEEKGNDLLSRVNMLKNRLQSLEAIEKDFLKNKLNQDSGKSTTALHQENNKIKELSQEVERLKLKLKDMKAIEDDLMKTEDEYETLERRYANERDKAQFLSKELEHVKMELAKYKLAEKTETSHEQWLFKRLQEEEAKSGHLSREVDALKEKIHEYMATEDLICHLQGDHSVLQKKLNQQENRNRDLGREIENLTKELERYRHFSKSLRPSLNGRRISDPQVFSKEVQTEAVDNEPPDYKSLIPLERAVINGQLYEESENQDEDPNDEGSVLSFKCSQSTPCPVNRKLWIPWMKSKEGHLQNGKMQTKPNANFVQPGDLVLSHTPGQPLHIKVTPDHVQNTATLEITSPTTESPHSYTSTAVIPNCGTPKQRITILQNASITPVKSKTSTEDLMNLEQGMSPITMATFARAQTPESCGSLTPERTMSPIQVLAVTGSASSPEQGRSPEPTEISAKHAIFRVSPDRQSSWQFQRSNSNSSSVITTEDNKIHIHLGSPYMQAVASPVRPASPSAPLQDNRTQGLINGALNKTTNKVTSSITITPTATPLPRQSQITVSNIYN
The assay can be described thus: yeast two-hybrid.

These are yes or no findings as the source states them, for the method shown. Some entries that bind do so weakly or less than the wild type.

B1: DOC1-related protein (protein)
chain: MVVDEQQRLTAQLTLQRQKIQELTTNAKETHTKLALAEARVQEEEQKATRLEKELQTQTTKFHQDQDTIMAKLTNEDSQNRQLQQKLAALSRQIDELEETNRSLRKAEEELQDIKEKISKGEYGNAGIMAEVEELRKRVLDMEGKDEELIKMEEQCRDLNKRLERETLQSKDFKLEVEKLSKRIMALEKLEDAFNKSKQECYSLKCNLEKERMTTKQLSQELESLKVRIKELEAIESRLEKTEFTLKEDLTKLKTLTVMFVDERKTMSEKLKKTEDKLQAASSQLQVEQNKVTTVTEKLIEETKRALKSKTDVEEKMYSVTKERDDLKNKLKAEEEKGNDLLSRVNMLKNRLQSLEAIEKDFLKNKLNQDSGKSTTALHQENNKIKELSQEVERLKLKLKDMKAIEDDLMKTEDEYETLERRYANERDKAQFLSKELEHVKMELAKYKLAEKTETSHEQWLFKRLQEEEAKSGHLSREVDALKEKIHEYMATEDLICHLQGDHSVLQKKLNQQENRNRDLGREIENLTKELERYRHFSKSLRPSLNGRRISDPQVFSKEVQTEAVDNEPPDYKSLIPLERAVINGQLYEESENQDEDPNDEGSVLSFKCSQSTPCPVNRKLWIPWMKSKEGHLQNGKMQTKPNANFVQPGDLVLSHTPGQPLHIKVTPDHVQNTATLEITSPTTESPHSYTSTAVIPNCGTPKQRITILQNASITPVKSKTSTEDLMNLEQGMSPITMATFARAQTPESCGSLTPERTMSPIQVLAVTGSASSPEQGRSPEPTEISAKHAIFRVSPDRQSSWQFQRSNSNSSSVITTEDNKIHIHLGSPYMQAVASPVRPASPSAPLQDNRTQGLINGALNKTTNKVTSSITITPTATPLPRQSQITVSNIYN
Consider B1, for which the binding entry is on record as “binds”.

Values taken from patent US20030108554A1 (published 2003).
